Test results taken from patent US9840483B2, “Radiomitigating pharmaceutical formulations” (The Regents of the University of California, priority 2013, dated 2017).
Some entries share one result that the patent states for a list of compounds. Some compounds share one range, which may span the group rather than tell each member.

Key:
[1] = tested on: Til-1 murine lymphocyte cells; experiment: Mitigation of radiation-induced apoptosis in vitro: viability of irradiated Til-1 cells (ATPlite) screen; type: cell-based; settings: 10 μM, 2 Gy, compound added after 1 hour
Method: The ability of compounds from Example 1 to mitigate radiation-induced apoptosis in vitro relative to control values (100%) is shown in FIG. 1. Briefly, 100,000 small-molecules were screened at 10 μM final concentration in 1% dimethylsulfoxide (DMSO) using the viability of a murine lymphocyte line as a readout (Mitigation cell viability %). Ten thousand Til-1 murine lymphocyte cells were dispensed into each well of 384-well plates using a Multidrop 384 (Thermo Scientific, Waltham, Mass.) The Til-1 cells were irradiated at the dose of 2 Gy. After 1 hour, the small-molecules were added. Twenty-four hours after the radiation, cell viability was assayed by luminesce-based measurement of ATP production (ATPlite, Perkin-Elmer, Waltham, Mass.) with a SpectraMax M5 microplate reader (Molecular Devices, Sunnyvale, Calif.). The Z′ factor for the assay was >0.5. See Zhang, J. H., Chung, T. D., Oldenburg, K. R. “A Simple Statistical Parameter for Use in Evaluation and Validation of High Throughput Screening Assays,” J Biomol Screen 4:67, 1999. A positive readout was >130% of the control irradiated value.

[2] = tested on: C3Hf/Kam and C57B16/J mice; experiment: Animal Whole Body Irradiation (WBI) assay, mitigation of lethality; type: in vivo; settings: varying radiation dose, C3H
Method: Briefly, Animal Whole Body Irradiation (WBI) Assays were conducted with C3Hf/Kam and C57B16/J mice. The mice were bred and maintained in a strict gnotobiotic environment in the American Association of Laboratory Animal Care-Accredited Animal Facilities of Department of Radiation Oncology, UCLA. The Animal Care and Use Committee approved all experiments, which were performed in accordance with all local and national guidelines for the care and use of animals. Mice, 9-12 weeks old, were given WBI using a Gamma cell 40 irradiator (Cs137 source; Atomic Energy of Canada, Ltd.) at a dose rate of […]. Mice were monitored for at least 30 days and defined criteria for humane euthanasia was used as an endpoint.
Compounds were typically dissolved in 15 μL DMSO and suspended in 1 mL of 1% Cremphor EL in water for administration in 0.2 mL volumes. […] All mice, including controls, received the same diluent as the experimental groups. The chosen compounds were administered to the mice 5 times at 24 h intervals, starting 24 hours after WBI at LD70/30 (7.725 Gy for the C3H strain) doses. Similar data were obtained with a single dose and at 48 hours after radiation exposure in both mouse strains. Both subcutaneous and oral routes were effective. The compounds provided greatly elevated animals survival level as compared to control group.
Dose response experiments were executed in a manner similar to the WBI Assay described in Example 3. […] Both Compound 2 (53555.12) and Compound 3 (5346360) were effective in C57Bl/6 female mice in this case mitigating against LD70/30 doses of 8.509 Gy due to the relative radioresistance of this strain relative to C3Hs. […] When given orally by gavage, Compound 2 (535551.2) in 5 daily doses starting at 24 hours post-WBI was effective at 5 mg/kg in both C3H and C57Bl/6 strains, but not at 25 mg/kg. […]

[3] = 5 mg/kg subcutaneously for 5 days starting 24 hours after WBI

Row | SMILES | Activity in screen (positive readout >130% of the control irradiated value) [1] | Dose modifying factor (Probit analysis) [2, 3] | Dose modifying factor (Probit analysis) ([2]; 75 mg/kg subcutaneously for 5 days starting 24 hours after WBI)
1 | O=[N+]([O-])c1ccc(S(=O)(=O)N2CCN(c3ccc(F)cc3)CC2)cc1 [Compound 1, 1-(4-fluorophenyl)-4-[(4-nitrobenzene)sulfonyl]piperazine] | showed activity |  | 
2 | O=[N+]([O-])c1ccc(S(=O)(=O)N2CCN(c3ccccc3)CC2)cc1 [Compound 2, 1-[(4-nitrobenzene)sulfonyl]-4-phenylpiperazine] | showed activity | 1.04-1.09 | 
3 | O=[N+]([O-])c1ccc(S(=O)(=O)N2CCN(c3cccc(Cl)c3)CC2)cc1 [Compound 3] | showed activity | 1.04-1.09 | 
4 | O=[N+]([O-])c1ccc(S(=O)(=O)N2CCN(C/C=C/c3ccccc3)CC2)cc1 [Compound 4, 1-[(4-nitrobenzene) Sulfonyl]-4-[(2E)-3-phenylprop-2-en-1-yl]piperazine] | showed activity |  | 
5 | CCN(CC)S(=O)(=O)c1ccc([N+](=O)[O-])cc1 [Compound 5, N,N-diethyl-4-nitrophenyl-1-sulfonamide] | showed activity |  | 1.04-1.09
6 | O=[N+]([O-])c1ccc(S(=O)(=O)C2CCSC2c2ccccc2)cc1 (stereo not shown) [Compound 6, 3-((4-nitrophenyl)sulfonyl)-2-phenyltetrahydrothiophene] | showed activity |  | 
7 | CN1CCN(S(=O)(=O)c2ccc([N+](=O)[O-])cc2)CC1 [Compound 7, 1-methyl-4-((4-nitrophenyl)sulfonyl) piperazine] | showed activity |  | 
